Reference: the supplement of paper PMC8728848
The other results are listed elsewhere or left out.

Experiments:
Assay in all cases: glycan array binding signal (z-score within array); higher = stronger binding
Conditions in all cases: glycan notation: IUPAC condensed, linker removed
[1] = target: Gal(b1-4)GlcNAc(b1-3)GalNAc
In short: (§1)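 Negative Z-scores can be read as non-binding. The Z-score is calculated within each array and then averaged across arrays of one protein sequence at different concentrations or buffers and across linkers. Arrays, 3228 in all, were curated from the Consortium for Functional Glycomics database and kept only where the protein sequence was available.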

[2] = target: Gal(b1-4)GlcNAc(b1-3)[Fuc(a1-3)GlcNAc(b1-6)]Gal(b1-4)Glc
In short: as §1

[3] = target: Gal(b1-4)GlcNAc(b1-3)[Gal(b1-4)GlcNAc(b1-6)]Gal(b1-4)GlcNAc
In short: as §1

[4] = target: Gal(b1-4)GlcNAc(b1-3)[Gal(b1-4)GlcNAc(b1-6)]GalNAc
In short: as §1

[5] = target: Gal(b1-4)GlcNAc(b1-3)[GlcNAc(b1-6)]Gal(b1-4)GlcNAc
In short: as §1

[6] = target: Gal(b1-4)GlcNAc(b1-6)Gal(b1-4)GlcNAc
In short: as §1

[7] = target: Gal(b1-4)GlcNAc(b1-6)GalNAc
In short: as §1

[8] = target: Gal(b1-4)GlcNAc(b1-6)[Gal(b1-3)]GalNAc
In short: as §1

[9] = target: Gal(b1-4)GlcNAc(b1-6)[Gal(b1-4)GlcNAc(b1-3)]GalNAc
In short: as §1

Gal(b1-4)GlcNAc6P = target: Gal(b1-4)GlcNAc6P
In short: as §1

Gal(b1-6)Gal = target: Gal(b1-6)Gal
In short: as §1

Gal3S(b1-3)GalNAc = target: Gal3S(b1-3)GalNAc
In short: as §1

Gal3S(b1-3)GlcNAc = target: Gal3S(b1-3)GlcNAc
In short: as §1

[10] = target: Gal3S(b1-3)[Fuc(a1-4)]GlcNAc
In short: as §1

Gal3S(b1-4)Glc = target: Gal3S(b1-4)Glc
In short: as §1

Gal3S(b1-4)Glc6S = target: Gal3S(b1-4)Glc6S
In short: as §1

Gal3S(b1-4)GlcNAc = target: Gal3S(b1-4)GlcNAc
In short: as §1

Gal3S(b1-4)GlcNAc6S = target: Gal3S(b1-4)GlcNAc6S
In short: as §1

[11] = target: Gal3S(b1-4)[Fuc(a1-3)]Glc
In short: as §1

[12] = target: Gal3S(b1-4)[Fuc(a1-3)]Glc6S
In short: as §1

[13] = target: Gal3S(b1-4)[Fuc(a1-3)]GlcNAc
In short: as §1

[14] = target: Gal3S(b1-4)[Fuc(a1-3)]GlcNAc6S
In short: as §1

Gal3S4S(b1-4)GlcNAc = target: Gal3S4S(b1-4)GlcNAc
In short: as §1

Gal3S6S(b1-4)GlcNAc = target: Gal3S6S(b1-4)GlcNAc
In short: as §1

Gal3S6S(b1-4)GlcNAc6S = target: Gal3S6S(b1-4)GlcNAc6S
In short: as §1

Gal4S(b1-4)GlcNAc = target: Gal4S(b1-4)GlcNAc
In short: as §1

Gal4S6S(b1-4)GlcNAc = target: Gal4S6S(b1-4)GlcNAc
In short: as §1

Gal6P(b1-4)GlcNAc = target: Gal6P(b1-4)GlcNAc
In short: as §1

Gal6S(b1-3)GlcNAc = target: Gal6S(b1-3)GlcNAc
In short: as §1

Gal6S(b1-3)GlcNAc6S = target: Gal6S(b1-3)GlcNAc6S
In short: as §1

Gal6S(b1-4)Glc = target: Gal6S(b1-4)Glc
In short: as §1

Gal6S(b1-4)Glc6S = target: Gal6S(b1-4)Glc6S
In short: as §1

Gal6S(b1-4)GlcNAc = target: Gal6S(b1-4)GlcNAc
In short: as §1

Gal6S(b1-4)GlcNAc6S = target: Gal6S(b1-4)GlcNAc6S
In short: as §1

GalNAc(a1-3)Gal = target: GalNAc(a1-3)Gal
In short: as §1

GalNAc(a1-3)GalNAc = target: GalNAc(a1-3)GalNAc
In short: as §1

[15] = target: GalNAc(a1-3)GalNAc(a1-3)Gal(a1-4)Gal(b1-4)GlcNAc
In short: as §1

B1: Flo1 (Saccharomyces cerevisiae), P32768 (protein)
chain: SGATEACLPAGQRKSGMNINFYQYSLKDSSTYSNAAYMAYGYASKTKLGSVGGQTDISIDYNIPCVSSSGTFPCPQEDSYGNWGCKGMGACSNSQGIAYWSTDLFGFYTTPTNVTLEMTGYFLPPQTGSYTFKFATVDDSAILSVGGATAFNCCAQQQPPITSTNFTIDGIKPWGGSLPPNIEGTVYMYAGYYYPMKVVYSNAVSWGTLPISVTLPDGTTVSDDFEGYVYSFDDDLSQSNCTVPDPSNY
glycan array binding signal (z-score) [1]: -0.3 | glycan array binding signal (z-score) [2]: -1.03 | glycan array binding signal (z-score) [3]: -0.428 | glycan array binding signal (z-score) [4]: -0.354 | glycan array binding signal (z-score) [5]: -0.186 | glycan array binding signal (z-score) [6]: -0.551 | glycan array binding signal (z-score) [7]: 0.225 | glycan array binding signal (z-score) [8]: -0.758 | glycan array binding signal (z-score) [9]: -0.029 | glycan array binding signal (z-score) (Gal(b1-4)GlcNAc6P): 0.128 | glycan array binding signal (z-score) (Gal(b1-6)Gal): -0.618 | glycan array binding signal (z-score) (Gal3S(b1-3)GalNAc): -0.392 | glycan array binding signal (z-score) (Gal3S(b1-3)GlcNAc): -0.339 | glycan array binding signal (z-score) [10]: -0.316 | glycan array binding signal (z-score) (Gal3S(b1-4)Glc): 0.086 | glycan array binding signal (z-score) (Gal3S(b1-4)Glc6S): -0.381 | glycan array binding signal (z-score) (Gal3S(b1-4)GlcNAc): -0.726 | glycan array binding signal (z-score) (Gal3S(b1-4)GlcNAc6S): -0.289 | glycan array binding signal (z-score) [11]: 0.7 | glycan array binding signal (z-score) [12]: 1.48 | glycan array binding signal (z-score) [13]: -0.778 | glycan array binding signal (z-score) [14]: -0.547 | glycan array binding signal (z-score) (Gal3S4S(b1-4)GlcNAc): -0.376 | glycan array binding signal (z-score) (Gal3S6S(b1-4)GlcNAc): -0.469 | glycan array binding signal (z-score) (Gal3S6S(b1-4)GlcNAc6S): -0.345 | glycan array binding signal (z-score) (Gal4S(b1-4)GlcNAc): -0.101 | glycan array binding signal (z-score) (Gal4S6S(b1-4)GlcNAc): -0.674 | glycan array binding signal (z-score) (Gal6P(b1-4)GlcNAc): 0.464 | glycan array binding signal (z-score) (Gal6S(b1-3)GlcNAc): -0.48 | glycan array binding signal (z-score) (Gal6S(b1-3)GlcNAc6S): -0.203 | glycan array binding signal (z-score) (Gal6S(b1-4)Glc): -0.183 | glycan array binding signal (z-score) (Gal6S(b1-4)Glc6S): -0.279 | glycan array binding signal (z-score) (Gal6S(b1-4)GlcNAc): -0.111 | glycan array binding signal (z-score) (Gal6S(b1-4)GlcNAc6S): -0.216 | glycan array binding signal (z-score) (GalNAc(a1-3)Gal): -0.605 | glycan array binding signal (z-score) (GalNAc(a1-3)GalNAc): -0.534 | glycan array binding signal (z-score) [15]: -0.87
